# Results as given in publication PMC6883073.
# The exact form of at least one protein or probe is not confirmed. At least one verdict rests on a figure or table, not on a statement of the authors.
# System: VEGF-165
# Experiment: EMSA
# Conditions: PBS + 0.005% Tween 20, pH 7.4 (+50 mM KCl for aptamer B), 2.5 nM aptamer heated at 90 C and cooled, recombinant protein, protein details: His-tag, label: 5' fluorescein, folded or branched DNA
sequence,measurement,setting,value
GCCCGTCTTCCAGACAAGAGTGCAGGGCTTTTTTTTTTTTTTTTTTTTAGGTCGACGGTCACGCGACTGCGCATCA [AT20Am (second domain scrambled)],binding result,"1:1 complex only, 1:2 complex absent (0, 10, 125 nM)",binds
GCCCGTCTTCCAGACAAGAGTGCAGGGCTTTTTTTTTTTTTTTTTTTTTTTTTTTTTTGCCCGTCTTCCAGACAAGAGTGCAGGGC [AT30A],binding result,"10 nM VEGF-165, below AT20A",binds
GCCCGTCTTCCAGACAAGAGTGCAGGGCGCCCGTCTTCCAGACAAGAGTGCAGGGC [AT0A],binding result,"10 nM VEGF-165, below AT20A",binds
CAATTGGGCCCGTCCGTATGGTGGGT [fC (SL2-B)],binding signal (fraction bound),10 nM VEGF-165,0.01
same,Kd,"25 nM nfA competitor, apparent Kd",135 nM
GCCCGTCTTCCAGACAAGAGTGCAGGGCTTTTTTTTTTGCCCGTCTTCCAGACAAGAGTGCAGGGC [AT10A],binding result,"10 nM VEGF-165, below AT20A",binds
TGTGGGGGTGGACTGGGTGGGTACC [fB (3R02)],Kd,50 mM KCl added,> 1500 nM
